The results in this text go back to PMC7948952, “Structural basis for multifunctional roles of human Ints3 C-terminal domain” (The Journal of Biological Chemistry, 2020).

Amino acid sequences for entries named in this document (tags omitted). A change or cut given only in a name is not applied to a line headed by its entry. Chains listed by the source or under a name are the forms on record and can include a tag or linker. Residues count along the entry.
Ints3-555-976 in pRSFDuet-1 (His-tagged), coexpressed with GST-Ints6-807-887 (Q68E01, residues 556-977): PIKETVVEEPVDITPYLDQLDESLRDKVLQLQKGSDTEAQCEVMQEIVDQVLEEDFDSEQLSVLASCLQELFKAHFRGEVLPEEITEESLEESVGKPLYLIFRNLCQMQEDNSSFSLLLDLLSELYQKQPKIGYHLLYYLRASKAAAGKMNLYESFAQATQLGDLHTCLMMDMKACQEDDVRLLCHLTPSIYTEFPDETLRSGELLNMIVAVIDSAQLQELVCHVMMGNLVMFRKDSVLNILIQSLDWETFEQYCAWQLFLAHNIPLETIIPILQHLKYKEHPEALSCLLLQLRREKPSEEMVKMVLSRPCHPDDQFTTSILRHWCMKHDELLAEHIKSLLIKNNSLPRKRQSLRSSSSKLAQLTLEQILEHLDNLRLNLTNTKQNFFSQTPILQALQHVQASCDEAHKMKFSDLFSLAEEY
Ints3-555-899 in pRSFDuet-1 (His-tagged), coexpressed with GST-Ints6-807-887 (Q68E01, residues 556-900): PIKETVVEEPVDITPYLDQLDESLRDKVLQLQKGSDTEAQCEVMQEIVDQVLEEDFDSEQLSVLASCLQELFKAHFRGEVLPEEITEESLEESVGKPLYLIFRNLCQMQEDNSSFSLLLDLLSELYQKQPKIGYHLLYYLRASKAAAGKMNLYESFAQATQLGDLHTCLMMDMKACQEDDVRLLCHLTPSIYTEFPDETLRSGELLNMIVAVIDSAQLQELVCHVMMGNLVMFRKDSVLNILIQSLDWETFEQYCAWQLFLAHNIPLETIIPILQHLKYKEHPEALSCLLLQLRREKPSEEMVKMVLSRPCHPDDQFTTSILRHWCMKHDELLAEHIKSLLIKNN
GST-tagged Ints3-555-976 M780A/M781A (coexpression with MBP-Ints6-807-887) (Q68E01-2, form named): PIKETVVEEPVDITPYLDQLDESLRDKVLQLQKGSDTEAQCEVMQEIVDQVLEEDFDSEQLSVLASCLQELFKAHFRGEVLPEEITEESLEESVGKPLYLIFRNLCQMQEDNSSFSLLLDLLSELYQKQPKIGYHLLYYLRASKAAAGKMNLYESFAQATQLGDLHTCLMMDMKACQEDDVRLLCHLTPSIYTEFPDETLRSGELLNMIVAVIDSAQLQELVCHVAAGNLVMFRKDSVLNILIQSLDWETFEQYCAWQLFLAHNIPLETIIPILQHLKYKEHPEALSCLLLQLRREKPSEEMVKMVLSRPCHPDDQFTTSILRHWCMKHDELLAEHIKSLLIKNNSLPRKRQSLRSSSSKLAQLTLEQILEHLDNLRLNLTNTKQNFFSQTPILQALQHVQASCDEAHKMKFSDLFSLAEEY
GST-tagged Ints3-555-976 R877E (coexpression with MBP-Ints6-807-887) (Q68E01-2, form named): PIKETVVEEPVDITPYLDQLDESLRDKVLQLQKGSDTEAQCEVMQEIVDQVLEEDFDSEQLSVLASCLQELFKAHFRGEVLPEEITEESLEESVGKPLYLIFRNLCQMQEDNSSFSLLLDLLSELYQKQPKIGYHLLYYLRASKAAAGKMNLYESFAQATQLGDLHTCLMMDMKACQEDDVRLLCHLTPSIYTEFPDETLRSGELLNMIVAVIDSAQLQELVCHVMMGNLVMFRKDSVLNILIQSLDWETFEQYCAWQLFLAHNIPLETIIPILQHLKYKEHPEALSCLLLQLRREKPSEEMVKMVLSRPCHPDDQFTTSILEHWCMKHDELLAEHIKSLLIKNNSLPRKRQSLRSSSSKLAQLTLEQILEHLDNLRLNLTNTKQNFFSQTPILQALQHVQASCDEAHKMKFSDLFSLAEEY
GST-tagged Ints3-555-976 R877E/K882E (coexpression with MBP-Ints6-807-887) (Q68E01-2, form named): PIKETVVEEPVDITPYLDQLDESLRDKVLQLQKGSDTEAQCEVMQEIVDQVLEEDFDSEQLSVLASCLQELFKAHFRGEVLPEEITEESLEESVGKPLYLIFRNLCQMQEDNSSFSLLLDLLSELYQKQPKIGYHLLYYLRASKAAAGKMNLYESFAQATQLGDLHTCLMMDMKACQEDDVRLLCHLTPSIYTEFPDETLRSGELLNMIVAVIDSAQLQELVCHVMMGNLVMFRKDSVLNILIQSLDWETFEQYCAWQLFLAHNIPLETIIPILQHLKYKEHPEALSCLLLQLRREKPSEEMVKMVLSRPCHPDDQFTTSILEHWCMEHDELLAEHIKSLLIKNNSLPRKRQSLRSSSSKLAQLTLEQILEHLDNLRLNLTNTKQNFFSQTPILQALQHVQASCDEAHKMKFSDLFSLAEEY
Flag-tagged full-length Ints3, wild type (Q68E01-2, form named): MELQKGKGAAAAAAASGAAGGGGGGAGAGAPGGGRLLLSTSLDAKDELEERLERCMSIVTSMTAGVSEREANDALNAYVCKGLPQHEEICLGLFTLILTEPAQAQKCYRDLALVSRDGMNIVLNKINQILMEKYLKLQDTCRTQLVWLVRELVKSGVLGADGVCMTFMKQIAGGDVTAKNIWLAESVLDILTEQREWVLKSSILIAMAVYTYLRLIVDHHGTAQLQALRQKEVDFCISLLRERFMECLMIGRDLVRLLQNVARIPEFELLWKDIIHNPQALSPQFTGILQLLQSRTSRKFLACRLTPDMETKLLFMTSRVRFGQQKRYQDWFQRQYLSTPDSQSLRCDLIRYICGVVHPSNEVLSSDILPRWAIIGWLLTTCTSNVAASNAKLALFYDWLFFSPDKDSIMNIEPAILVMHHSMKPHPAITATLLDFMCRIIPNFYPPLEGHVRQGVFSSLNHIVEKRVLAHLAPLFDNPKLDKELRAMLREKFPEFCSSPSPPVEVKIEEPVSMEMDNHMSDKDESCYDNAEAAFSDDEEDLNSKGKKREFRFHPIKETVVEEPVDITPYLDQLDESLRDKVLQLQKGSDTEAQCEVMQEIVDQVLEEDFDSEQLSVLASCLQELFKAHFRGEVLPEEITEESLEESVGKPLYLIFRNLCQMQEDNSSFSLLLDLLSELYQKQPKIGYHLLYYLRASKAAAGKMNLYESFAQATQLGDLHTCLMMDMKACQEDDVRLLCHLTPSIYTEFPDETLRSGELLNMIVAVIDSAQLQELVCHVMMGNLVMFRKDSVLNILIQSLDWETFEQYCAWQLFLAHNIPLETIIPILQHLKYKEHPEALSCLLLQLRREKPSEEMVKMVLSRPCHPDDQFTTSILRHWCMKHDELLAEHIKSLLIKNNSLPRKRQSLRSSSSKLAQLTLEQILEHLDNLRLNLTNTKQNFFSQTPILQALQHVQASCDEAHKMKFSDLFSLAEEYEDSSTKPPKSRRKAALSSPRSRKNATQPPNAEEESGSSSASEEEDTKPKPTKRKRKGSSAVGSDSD
GST-tagged Ints3-555-976 D768A/Q771A (Q68E01-2, form named): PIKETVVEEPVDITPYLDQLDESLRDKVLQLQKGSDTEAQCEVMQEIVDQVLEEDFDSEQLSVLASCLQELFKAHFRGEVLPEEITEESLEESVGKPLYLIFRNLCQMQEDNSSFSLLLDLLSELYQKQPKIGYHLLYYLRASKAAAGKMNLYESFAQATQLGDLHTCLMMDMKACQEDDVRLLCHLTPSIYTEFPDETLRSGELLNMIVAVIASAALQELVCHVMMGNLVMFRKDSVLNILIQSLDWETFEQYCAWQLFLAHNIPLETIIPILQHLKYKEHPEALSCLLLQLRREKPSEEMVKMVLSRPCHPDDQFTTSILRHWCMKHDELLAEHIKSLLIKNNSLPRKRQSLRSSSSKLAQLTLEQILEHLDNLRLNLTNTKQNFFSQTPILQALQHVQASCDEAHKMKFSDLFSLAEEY

These are yes or no findings as the source states them, for the method shown. For some of these results: Binding seen in cells or lysates may run through a third protein. Some results given as binding are weak or reduced against the parent protein; the word gives no strength.

Assay [1] has as its target GST-tagged Ints6-807-887 (UniProt Q9UL03). Kind of assay: pull-down; coexpression in E. coli BL21-CodonPlus (DE3)-RIPL of Ints3 (pRSFDuet-1) and GST-tagged Ints6-807-887 (pGEX-6p-1); complex retrieved by GST-tagged Ints6-807-887 and copurified.
Assay [2] concerns the target Ints3-555-976 M780A/M781A (human) (UniProt Q68E01). In words: SEC; Superdex 200 Increase 10/300 Gl, 100 μl of approximately 2 mg/ml, 0.5 ml/min; wild-type and mutant Ints3-555-976; both purified.
The target of assay [3] is Ints3-555-976 R877E (human) (UniProt Q68E01). The description is as above.
Assay [4] has as its target Ints3-555-976 R877E/K882E (human) (UniProt Q68E01). The description is as above.
For assay [5], the target named is Flag-tagged full-length Ints3, wild type (human) (UniProt Q68E01). Kind of assay: co-IP; HEK 293T transfected with Flag-tagged Ints3 and V5-tagged Ints6 full-length constructs; IP with anti-Flag M2 agarose (V5 blot) or anti-V5 agarose (Flag blot); 20 mM Hepes pH 7.9, 300 mM NaCl, 0.4% Nonidet P-40.
The target in assay [6] is GST-tagged Ints3-555-976 R877E/K882E (coexpression with MBP-Ints6-807-887) (human) (UniProt Q68E01). In words: pull-down; coexpression in E. coli of GST-tagged Ints3 constructs (pGEX-6p-1) and MBP-Ints6-807-887 (pRSFDuet-1), GST or MBP pull-down ('coexpression and reverse pull-down').
The target in assay [7] is GST-tagged Ints3-555-976 M780A/M781A (coexpression with MBP-Ints6-807-887) (human) (UniProt Q68E01). Described as above.
Assay [8] deals with GST-tagged Ints3-555-976 R877E (coexpression with MBP-Ints6-807-887) (human) (UniProt Q68E01). The assay is described as above.
The target in assay [9] is GST-tagged Ints3-555-976 D768A/Q771A (human) (UniProt Q68E01). Described as above.

Take “Ints3-555-899 in pRSFDuet-1 (His-tagged), coexpressed with GST-Ints6-807-887 (from UniProt Q68E01-2 555-899) (domain or fragment)”: in assay [1], the binding entry is on record as “binds”.
As to “Ints3-555-976 M780A/M781A (from UniProt Q68E01-2 555-976) (domain or fragment)”, the binding result in [2] is given as “binds weakly”.
Regarding “Ints3-555-976 R877E (from UniProt Q68E01-2 555-976) (domain or fragment)”, in assay [3], the binding result is given as “binds weakly”.
As to “Ints3-555-976 R877E/K882E (from UniProt Q68E01-2 555-976) (domain or fragment)”, the binding result in [4] was “binds weakly”.
Regarding “Ints3-555-976 in pRSFDuet-1 (His-tagged), coexpressed with GST-Ints6-807-887 (from UniProt Q68E01-2 555-976) (domain or fragment)”, the binding result in assay [1] is “binds”.
“V5-tagged full-length Ints6 (from UniProt Q9UL03 1-887)”: the binding result in assay [5] is reported as “binds”.

B1: MBP-Ints6-807-887 (domain or fragment, UniProt Q9UL03 807-887, looked up)
chain: EVNTELKAQIMKEIRKPGRKYERIFTLLKHVQGSLQTRLIFLQNVIKEASRFKKRMLIEQLENFLDEIHRRANQINHINSN
notes: Integrator complex subunit 6 (Ints6, DDX26a), residues 807-887; cDNA from DNAsu; Made in a modified pMal-c2X vector: an AAAEF linker and no protease site stand between MBP and Ints6-807-887; the MBP-Ints6-807-887 region was then cloned into pRSFDuet-1; also called MBP-tagged Ints6-807-887; source: E. coli BL21-CodonPlus (DE3)-RIPL, purified (amylose resin, HiTrap Q); also coexpressed with …
B1: the binding result in [6], in assay [7], in [8] and in assay [9] was “binds” throughout.
